# In PubChem BioAssay AID1487 (National Center for Advancing Translational Sciences (NCATS), 2009):
# Some of the results follow. These are further read-outs of the screen, such as a control signal, another cell line or another target. No call is given for them. Compounds called inactive in the main read-out are mostly missing here. The note in brackets gives the kind of curve behind each potency; many fits are weak.
# Experiment: qHTS Assay for Modulators of Lamin A Splicing
# Settings: HeLa LMNA splicing GFP/RFP minigene ratio, 48 h
# Outline: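 Read-out is the ratio of GFP to DsRed2 object intensity, acquired by 488 nm laser-scanning cytometry on HeLa lamin A-EGFP minigene reporter cells. Compound incubation 48 hrs at 37 °C in Opti-MEM with 2% FBS; DMSO 0.5% final.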
# [1] = measured here: RFP viability control channel
# [2] = measured here: GFP splicing reporter channel
SMILES,AC50 [1],AC50 [2]
Cc1ccc2oc(-c3cccc(NC(=O)c4ccc(Br)o4)c3C)nc2c1,"35.5 µM [rising, single point]",–
O=[N+]([O-])c1cc(C(F)(F)F)cc([N+](=O)[O-])c1N1CCN(S(=O)(=O)c2ccccc2)CC1,"11.2 µM [rising, partial curve]","3.16 µM [rising, full curve, poor fit]"
O=C(Nn1cnnc1)C(Sc1ccccc1)c1ccccc1 (configuration not stated),"3.55 µM [rising, single point]",–
Cc1cccc(NC(=O)c2nc(S(C)(=O)=O)ncc2Cl)c1,"3.55 µM [falling, partial curve]","4.47 µM [falling, partial curve, poor fit]"
Cc1ccc(-n2c(C)cc(/C=N/Nc3ccc([N+](=O)[O-])cn3)c2C)c(C)c1,"12.6 µM [rising, partial curve]","7.94 µM [rising, partial curve, poor fit]"
Oc1ccccc1-c1cc(-c2cccc(F)c2)n[nH]1,"11.2 µM [rising, partial curve]","10 µM [rising, partial curve]"
COc1ccc(CCNC(=O)COc2ccc(-c3ccc(C)cc3)cc2)cc1OC,"1.41 µM [rising, full curve]","1.26 µM [rising, full curve]"
Cc1ccsc1C1CC(=O)NC2=C1C(=O)CC(C)(C)C2 (configuration not stated),"20 µM [rising, partial curve, poor fit]",–
Cc1cc(=O)oc2c1ccc1oc(/C(=N/O)c3ccccc3)c(C)c12,"14.1 µM [rising, partial curve]",–
Cc1cccnc1Nc1nc(-c2ccc(O)cc2O)cs1,"31.6 µM [rising, single point]","0.316 µM [falling, single point]"
Cc1nc(-c2ccccc2)sc1-c1ccnn1C,"1.41 µM [falling, single point]",–
c1ccc(CSc2nnc(-c3c[nH]c4ccccc34)o2)cc1,"17.8 µM [rising, single point]",–
c1ccc(-c2nc(N3CCCCC3)nc3ccccc23)cc1,"0.282 µM [rising, partial curve, poor fit]",–
COc1ccc(/C=C2\OC(=S)N(C)C2=O)cc1,"11.2 µM [rising, partial curve]","11.2 µM [rising, single point]"
Cc1c(C(=O)NCc2ccc3c(c2)OCO3)oc2ccc(Br)cc12,"12.6 µM [rising, single point]",–
CCOc1ccc(C2CC(=O)NC3=C2C(=O)CCC3)cc1Cl (configuration not stated),"8.91 µM [rising, partial curve]",–
O=c1c2ccccc2nc2ccc(NCc3ccco3)nn12,"3.98 µM [falling, full curve, poor fit]","11.2 µM [falling, partial curve, poor fit]"

SMILES,AC50 [1],AC50 [2]
CNc1ccc(Br)cc(C(=O)/C=C/c2ccc3c(c2)OCO3)c1=O,"25.1 µM [falling, single point]","25.1 µM [falling, single point]"
Cc1nn(CC(=O)NCc2ccc(Cl)cc2)c(C)c1[N+](=O)[O-],"7.94 µM [falling, partial curve]","20 µM [falling, partial curve, poor fit]"
O=C1C=CC(O)(c2cc(=O)c3c(O)cc(O)cc3o2)C=C1,"31.6 µM [rising, single point]",–
COc1cccc(NC(=O)CSc2nc3ccccc3c(=O)n2CCCC(=O)N2CCCC2)c1,"15.8 µM [rising, partial curve]","20 µM [rising, partial curve, poor fit]"
C/C(=N\NC(=O)COc1ccc(C(C)(C)C)cc1)c1cc2ccccc2o1,"25.1 µM [rising, single point]","3.55 µM [rising, partial curve, poor fit]"
COc1ccc(C(C(=O)NC2CCCCC2)N(C(=O)CCl)c2cccc(Cl)c2)cc1 (configuration not stated),"25.1 µM [falling, single point]","14.1 µM [falling, partial curve]"
COc1ccc(CC(=O)Nc2ccc3c(c2)CCC3)cc1OC,"7.08 µM [rising, partial curve]","6.31 µM [rising, full curve, poor fit]"
CN(CC(=O)Nc1ccc(Cl)c(Cl)c1)C(=O)C12CC3CC(CC(C3)C1)C2,"14.1 µM [rising, partial curve]","8.91 µM [rising, partial curve]"
COc1cc(C2CC(=O)c3c([nH]c(C(=O)OCCOC(C)C)c3C)C2)cc(OC)c1OC (configuration not stated),"6.31 µM [rising, full curve]","3.55 µM [rising, full curve]"
O=C(C[n+]1ccc(Cc2ccccc2)cc1)Nc1ccc([N+](=O)[O-])cc1Cl,–,"6.31 µM [falling, single point]"
Cc1nnc2sc(-c3cccc4ccccc34)nn12,"11.2 µM [falling, partial curve, poor fit]","10 µM [falling, partial curve, poor fit]"
O=C(NCCc1ccccc1)/C(=C/c1ccco1)c1ccccc1,"12.6 µM [rising, partial curve, poor fit]",–
CN1CCc2c(cc(O)c(O)c2Cl)C(c2cccc(Cl)c2)C1 (configuration not stated),"11.2 µM [falling, single point]","35.5 µM [falling, single point]"
N#C/C(=C\c1cccc([N+](=O)[O-])c1)c1nnc2n1CCCCC2,"12.6 µM [rising, partial curve]",–
COc1ccc(Oc2c(Cl)cnn(-c3ccc(Cl)c(Cl)c3)c2=O)cc1,"11.2 µM [falling, partial curve, poor fit]","17.8 µM [falling, partial curve, poor fit]"
CC(C)(C)CC(C)(C)NC(=O)Nc1cccc([N+](=O)[O-])c1,–,"0.0794 µM [rising, full curve, poor fit]"
